Laboratory results as given in patent US20170349627 (published 2017).

Experiment: peptide synthesis
Conditions: late stage modification step, acetate

caspofungin acetate
final HPLC purity (run 1): 99.82% | final HPLC purity (run 2): 99.76%
